At least one compound was matched to its structure with a doubt left.
tested on: zebrafish embryo; test: zebrafish embryo phenotype (pigmentation, morphology); format: in vivo; conditions: zebrafish phenotype induced, Y or N

Row | Structure (SMILES) | Phenotype
1 | Cc1ccc2c(c1)C1(NN=C(c3ccccc3)S1)C(=O)N2 (centres unmarked) [OGM3] | Y
2 | COc1cc(Br)c(S(=O)(=O)Nc2ccc(Cl)c(O[C@@H]3CCN(C)C3)c2)cc1OC [UT2i, reference compound] | N
3 | CN1C(=O)C2(NN=C(c3ccccc3)S2)c2ccccc21 (centres unmarked) [OGM5] | Y
4 | CCc1ccc2c(c1)C1(NN=C(c3ccccc3O)S1)C(=O)N2 (centres unmarked) [OGM4] | Y
5 | CN1C(=O)C2(NN=C(c3cccc4ccccc34)S2)c2ccccc21 (centres unmarked) [OGM6] | Y

Source: patent US12194027B2, “Small molecule inhibitors of GPCR GPR68 and related receptors for treating cancer, glioblastoma, and other indications” (UNIVERSITY OF MARYLAND, BALTIMORE, priority 2019, dated 2025)
